According to patent publication US20120164161A1 (AFFITECH RESEARCH, published 2012):
Results are given in words; binding and its absence hold for the method and conditions named. Some results given as binding are weak or reduced against the parent protein; the word gives no strength. Tags and fused reporters may be left off the sequences shown.

Molecular target: T1, human CC chemokine receptor 4 (CCR4) (human, UniProt P51679 1-360)
T1 sequence (looked up): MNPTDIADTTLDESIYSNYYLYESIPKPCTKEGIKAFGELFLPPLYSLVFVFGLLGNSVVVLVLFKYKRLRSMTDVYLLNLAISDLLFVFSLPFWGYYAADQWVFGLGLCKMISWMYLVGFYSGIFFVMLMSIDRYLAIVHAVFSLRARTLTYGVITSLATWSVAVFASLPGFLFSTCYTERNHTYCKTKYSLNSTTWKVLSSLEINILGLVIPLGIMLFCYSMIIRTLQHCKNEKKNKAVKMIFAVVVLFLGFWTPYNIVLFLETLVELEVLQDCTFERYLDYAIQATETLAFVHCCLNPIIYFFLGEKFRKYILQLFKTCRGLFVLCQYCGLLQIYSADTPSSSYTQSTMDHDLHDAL
Assay: chemotactic assay on CCRF-CEM cells

B1: Alexa647-labelled MDC-SNAP fusion protein (ligand, UniProt O00626 25-93, looked up, not shown: large carriers)
chain: GPYGANMEDSVCCRDYVRYRLPLRVVKHFYWTSDSCPRPGVVLLTFRDKEICADPRVPWVKMILNKLSQ
modifications: labeled with Alexa647
binding: binds
